Earlier results, collected in patent US20240066021A1, “METHODS FOR OPTIMIZING CFTR-MODULATOR THERAPY” (Children's Hospital Medical Center, priority 2021, published 2024).
At least one structure is not confirmed: it was looked up by name or label, or the drawing left a doubt.

Target: T1, IKK-beta (Homo sapiens, UniProt O14920)
T1 sequence (O14920 1-756): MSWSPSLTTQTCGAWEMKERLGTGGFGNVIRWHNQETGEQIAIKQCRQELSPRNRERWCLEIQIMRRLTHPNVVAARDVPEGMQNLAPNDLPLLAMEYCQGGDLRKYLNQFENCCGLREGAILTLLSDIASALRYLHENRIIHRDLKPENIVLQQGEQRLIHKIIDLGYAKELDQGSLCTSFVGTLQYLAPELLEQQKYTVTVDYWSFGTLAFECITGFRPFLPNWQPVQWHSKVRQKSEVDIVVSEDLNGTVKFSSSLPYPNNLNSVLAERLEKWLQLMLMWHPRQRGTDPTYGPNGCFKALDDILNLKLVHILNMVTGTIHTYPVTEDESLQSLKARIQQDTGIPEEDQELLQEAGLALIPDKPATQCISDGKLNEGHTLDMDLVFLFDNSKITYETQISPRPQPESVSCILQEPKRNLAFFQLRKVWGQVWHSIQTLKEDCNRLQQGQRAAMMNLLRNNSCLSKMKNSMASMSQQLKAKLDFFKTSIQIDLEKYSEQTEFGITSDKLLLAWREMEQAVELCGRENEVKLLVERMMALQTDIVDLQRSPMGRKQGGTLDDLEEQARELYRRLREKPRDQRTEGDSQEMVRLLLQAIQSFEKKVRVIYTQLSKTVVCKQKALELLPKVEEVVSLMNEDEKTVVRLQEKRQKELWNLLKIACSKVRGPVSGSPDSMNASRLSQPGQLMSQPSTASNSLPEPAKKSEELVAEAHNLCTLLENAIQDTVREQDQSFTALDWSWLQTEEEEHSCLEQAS
Conditions: Target IKK-beta, Gene Symbol IKBKB

For `COC(=O)[C@]12CCC(C)(C)C[C@H]1[C@H]1C(=O)C=C3[C@@]4(C)C=C(C#N)C(=O)C(C)(C)[C@@H]4CC[C@@]3(C)[C@]1(C)CC2` [Bardoxolone methyl], the Effect is listed as “Inhibition”.
